## Screening data

Data taken from PubChem BioAssay AID1159506, deposited by NCATS (2015).

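Luminescence from an EWS-FLI1 target-promoter (NR0B1) reporter, set against a CMV-promoter reporter, two days after silencing single genes in TC32 Ewing sarcoma cells.
Each siRNA was applied at 20 nM.
A z-score of the log NR0B1-over-CMV signal, less the median of siRNAs with the same seed; more negative means a stronger specific loss of the NR0B1 reporter.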

The strongest results of the screen are mostly left out here.
Sequences are the guide (antisense) strand, without overhang.

siRNA,gene,seed-corrected z-score
UUUCGGUUUUGAAGCUUGC,ZFC3H1,-0.3665
UCACUAUUACCAUUCCUCG,ZFPM2,-0.4983
UUUAAACAAAGUGUAUGGG,OR5A2,0.01641
UCGAUGACCGAAGUGGUGC,FAM110C,0.03036
AUUCCGAACAACUCUAUUC,VCP,-0.2185
UACUUGAUGAUGACUAAGU,GK,-0.3404
AUAGAGGUCAGCAUAACGC,NT5C2,-1.323
AAUGGAUUGAGUCUUGGUC,SLC1A2,0.1933
UUUCUUGACAGGAUAUAUC,GTDC1,0.2031
UACAAAGUACUUGACCUUC,SH3D21,1.444
UGUCUCUUGAGACUUGGGC,OR13C5,0.328
UUUUCCUUGAGAUUUUUCU,HSPE1,-0.8502
AGAUGUUAGGAGAAGAUUG,ARMS2,0.3353
UACAGACUUGGAAAUGUUC,MAP3K19,0.1354
UACGGCAUUAGUGUUUGGG,GAB3,-0.521
UAAGAUCUCAAUUCCACUC,ACSL5,0.4988
AGGUUUUUCAAAGAAGUCC,CSNK1G1,-0.2333
AUAGGGUUGAUAACAGUGU,OR3A2,0.02199
UUGGUAUUGCUGGUAAUGG,CEMIP,2.601
UUUGAGAUUCAGGUGCGGG,SYDE1,1.365
UCCCUUAUAAUAUUCACGG,ZNF214,-0.2456
AAAAGAAACCUAAGUGCUC,SAC3D1,0.1593
UUACUUCGCUGUCUGAUUC,MPP5,-0.204
AUAAUUCACAGUAAGAAGG,TOR2A,1.785
UCUGCGUACAGUAUCACGC,PROS1,-1.071
UAAUCCACUCCAAUGUCUG,BBOX1,0.1395
UUCUACUUAAUGUAACAGG,LPAR6,-1.482
UUUCUUCACCCGUUGGGUC,COA4,0.6146
UCACGAAACAGGUAAUCUG,NPC1,-0.216
AAAGUACUCCGUUCUAAGC,HAUS7,-1.062
AUUUGACCCAGUUCUGUCU,CALHM1,0.2229
UUUUGUACGGAAAAGAAUC,WDR4,0.5654
UCAGAGCGACCAGAAGUGC,RAD51-AS1,0.03591
UCUUGUUUAAGGAAUAUGC,KLHDC10,1.504
UUCUCGUUCAUAGCUGGUG,THOC2,-1.194
UUCUCUAAGAGGAUAGUGC,SRSF2,0.03497
UUCUAAACAACGAAGAGCC,MAP3K1,0.4047
UAUGUUUCGAAUGAUGAAU,RPS26P35,0.02238
UUACUGACUUUUCUGUAGC,PTTG2,0.6112
UGGAGUUUGAUUUGUAGGG,RPS14P9,-0.1797
UAACUUGGUUGGUUUUUCC,RUFY1,1.23
UAUUCCUCAGGUCAUAUCU,C11orf1,-0.1441
UAUAGUAUGCUGGUAUUUG,PP2D1,0.02367
UAGAGAACCACACUGGACC,HMX3,0.5066
ACCUUAACACCAUUGAUCC,ESYT2,0.7235
UGAGUAUGGUGUCAAGCCU,HIST2H2AB,-0.6352
UCUCUGUUUACAGGUAAGG,ESR2,-0.7028

For reference, 5 entries once more:

siRNA	gene	seed-corrected z-score
AUAGGGUUGAUAACAGUGU	OR3A2	0.02199
UACUUGAUGAUGACUAAGU	GK	-0.3404
UAGAGAACCACACUGGACC	HMX3	0.5066
UCACGAAACAGGUAAUCUG	NPC1	-0.216
UUCUCGUUCAUAGCUGGUG	THOC2	-1.194